Reference: PubChem BioAssay AID2685 (National Center for Advancing Translational Sciences (NCATS), 2010)
“And” between values parts separate entries of the source, which are not always exact repeats. Identical values can stand only once. This is one part of the list. The main result of the screen is listed elsewhere. These columns were measured beside it and carry no call. Compounds called inactive in the main read-out are mostly missing here. The note in brackets gives the kind of curve behind each potency; many fits are weak.

Assay: qHTS Assay for Lipid Storage Modulators in Drosophila S3 Cells;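 for cell number change: cells counted by Cell Tracker Red CMTPX staining in the red channel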
Conditions: BODIPY lipid droplet fluorescence, 18-24 h; for cell number change: measured here: cell count max response, cells fed with added oleic acid
How it was run: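 Drosophila S3 cells got compounds at several concentrations plus oleic acid (400 uM solution). Laser-scanning cytometry with 488 nm excitation read lipid droplets at 500-530 nm and cells at 575-640 nm. Percent activity was relative to 20 uM Triacsin C.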

[1] = measured here: cell number channel AC50, cells fed with added oleic acid
[2] = measured here: lipid fluorescence (Fed channel) AC50, cells fed with added oleic acid

SMILES | cell number change | AC50 [1] | AC50 [2]
CC(OC(=O)Cc1coc2cc3c(cc12)CCC3)C(=O)NCc1ccc2c(c1)OCO2 (configuration not stated) | 43.2% | 5.8 µM [rising, full curve] | 6.51 µM [rising, partial curve, poor fit]
Nc1nonc1C(=Nc1ccccc1)NO | -1.49% | – | 25.9 µM [falling, single point]
CCOC(=O)N1CCN(CC(=O)Nc2c(C(=O)OC)[nH]c3cccc(Cl)c23)CC1 | – | – | 1.46 µM [falling, partial curve, poor fit]
CN(C)S(=O)(=O)NC(c1ccccc1)c1ccccc1 | 7.88% | 0.517 µM [falling, full curve] | 0.731 µM [falling, full curve]
Cc1cc(C)c(NC(=O)COc2cccnc2[N+](=O)[O-])c(C)c1 | 9.22% | – | –
O=C1c2ccccc2C(=O)C1c1ccncc1 | -21.9% | – | 2.59 µM [rising, full curve]
COc1ccc(CCNCC(=O)N2C(C)CCCC2C)cc1OC (configuration not stated) | – | 0.651 µM [rising, partial curve, poor fit] | –
COc1cccc(SCc2noc(C(=O)NC(C)C)c2C(=O)NC(C)C)c1 | -0.528% | 6.51 µM [falling, single point] | 3.66 µM [falling, full curve, poor fit]
COc1cc(C(=O)NCCOc2ccc(C)c(C)c2)cc(OC)c1OC | -4.01% | – | –
CCc1ccc2nc(N(CCCN(C)C)C(=O)c3ccc4c(c3)OCCO4)sc2c1 | -31.4% | – | –
O=C(CCCOc1ccc(Cl)cc1)NC1CCCCC1 | -15.3% | – | –
Cc1nn(C(=O)c2ccc([N+](=O)[O-])cc2)c(C)c1Br | -2.71% | – | 0.0259 µM [falling, full curve, poor fit]
Cc1c(Cl)cccc1NC(=O)CCN1CCCCC1 | 52.7% | – | –
O=C(NC1CCC1)C1CCC(=O)N(Cc2ccccc2F)C1 (configuration not stated) | 11.6% | – | –
NC(=O)c1c(NC(=O)CCCC(=O)O)sc2c1CCCCCC2 | 15% | – | 1.46 µM [rising, full curve, poor fit]
O=[N+]([O-])c1ccc(S(=O)(=O)Nc2ccc(-c3csc(-c4ccccc4)n3)cc2)cc1 | -58.8% | 29.1 µM [falling, single point] | –
CC(C)(C)c1ccc(OCC(=O)O)cc1 | 20.8% and -3.85% | – | 2.59 µM [falling, partial curve, poor fit]
Cc1cccc(/C=C/C(=O)c2cc(Br)ccc(=O)c2O)c1 | -18.8% | – | –
NC(Cc1ccc(O)cc1)c1cn([C@@H](CCC(=O)O)C(=O)N2CCNCC2)nn1 (some centres not stated) | -32.5% | – | 18.4 µM [falling, single point]
